# Assay results as given in patent publication US20200330400A1, “METHODS FOR THE TREATMENT OF CANCER USING COENZYME Q10 AND FATTY ACID METABOLISM INHIBITORS” (Berg LLC, priority 2016, published 2020).
# Test system: MDA-MB231 cells
# Test: Coenzyme Q10 levels in MDA-MB231 cells treated with Coenzyme Q10
# Format: cell-based, human
# Details: 24 and 48 hours after treatment
smiles,measurement,value
COC1=C(OC)C(=O)C(C/C=C(\C)CC/C=C(\C)CC/C=C(\C)CC/C=C(\C)CC/C=C(\C)CC/C=C(\C)CC/C=C(\C)CC/C=C(\C)CC/C=C(\C)CCC=C(C)C)=C(C)C1=O [Coenzyme Q10],Ratio of Coenzyme Q10 to endogenous Coenzyme Q9,significantly increased the ratio of Coenzyme Q10 to endogenous Coenzyme Q9
